{"source": "PubChem BioAssay AID1347075", "about": "(National Center for Advancing Translational Sciences (NCATS), 2019)", "note": "Hit rate of the full screen: of about 400,000 compounds, about 5,500 (1.4%) were called active. Inconclusive results, whose numbers are uncertain, are shown with a selection of clear calls. The call rests on the fitted dose curve; in most records, active means well fitted cell-killing curve with a large enough effect; inconclusive means small, poorly fitted or top-dose-only effect, or effect the other way; inactive means flat fitted curve, though single readings scatter. Where the call is inconclusive, the potency comes from a doubtful curve fit. On the % scale 0 is the no-effect control and ±100 the full control effect; potency means the concentration at half of the fitted maximal effect."}
{"test": "qHTS assay for MDR1-selective chemotherapeutics: Primary screen using the parental adenocarcinoma cell KB-3-1; further: nearly all actives have a fitted effect of over 60% in size", "conditions": "KB-3-1 viability, CellTiter-Glo ATP luminescence, 72 h; activity change, negative = cytotoxic: at 46.1 µM (top of the series)", "method_in_brief": "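Parental KB-3-1 viability, qHTS format: 72 h compound exposure, 37 °C; CellTiter-Glo; media-only wells and DMSO plates as controls; concentration-effect fits on corrected data.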"}
{"smiles": "O=C(CN1CCN(c2ccc(O)cc2)CC1)N(C1CC1)C1CCS(=O)(=O)C1", "note": "(configuration not stated)", "Potency": "inactive"}
{"smiles": "CC[n+]1c(/C=C(/C)SC)sc2ccccc21", "Potency": "inactive"}
{"smiles": "CCOc1cc(/C=C2\\CCC/C(=C\\c3cc(Cl)c(O)c(OCC)c3)C2=O)cc(Cl)c1O", "Potency": "inconclusive: 29.1 µM [cytotoxic, single point]"}
{"smiles": "O=C(C[n+]1cc(-c2ccccc2)n2c1CCC2)Nc1nc(-c2ccccc2)cs1", "Potency": "active: 16.4 µM"}
{"smiles": "CCN(CC(=O)Nc1cc(C)nn1-c1nc(C)cc(C)n1)Cc1ccccc1", "Potency": "inconclusive: 29.1 µM [cytotoxic, partial curve, poor fit]"}
{"smiles": "O=C(CCc1ccccc1)Nc1ncc([N+](=O)[O-])s1", "Potency": "inconclusive: 29.1 µM [cytotoxic, single point]"}
{"smiles": "CCOC(=O)C1=C(C)NC2=C(C(=O)CC(c3ccc(OC)c(OC)c3)C2)C1c1ccc(C)o1", "note": "(configuration not stated)", "Potency": "inactive"}
{"smiles": "COc1ccc(C(=O)C2CCCN(S(=O)(=O)c3ccc(C(C)=O)cc3)C2)c(C)c1", "note": "(configuration not stated)", "Potency": "inconclusive: 20.6 µM [cytotoxic, single point]"}
{"smiles": "C=CCNC(=S)NNC(=O)c1cccn(Cc2ccc(Cl)c(Cl)c2)c1=O", "Potency": "inconclusive: 20.6 µM [cytotoxic, single point]"}
{"smiles": "CCCCN(CCCC)S(=O)(=O)c1ccc(C(=O)Nc2nnc(CSC)o2)cc1", "Potency": "inconclusive: 18.4 µM [cytotoxic, single point]"}
{"smiles": "COc1ccc(NC(=O)CSc2nc3ccccc3c(=O)n2-c2ccc3c(c2)OCO3)c(OC)c1", "Potency": "inconclusive: 25.9 µM [rising, partial curve, poor fit]"}
{"smiles": "Cc1cccc(NC(=S)NCC(C)CSc2ccc(Cl)cc2)c1", "note": "(configuration not stated)", "Potency": "inconclusive: 25.9 µM [cytotoxic, single point]"}
{"smiles": "Cc1cccc(NC(=O)CSc2nnc(CNC(=O)c3cccs3)o2)c1C", "Potency": "inactive"}
{"smiles": "CCN(CC)C(=O)C1=C(C)N(Cc2ccc(C(C)(C)C)cc2)C(=O)C(CC(=O)NCCCCc2ccccc2)C1", "note": "(configuration not stated)", "Potency": "inconclusive: 29.1 µM [cytotoxic, single point]"}
{"smiles": "O=C(NCc1ccncc1)C(=O)NCC(c1ccco1)N1CCN(c2ccc(F)cc2)CC1", "note": "(configuration not stated)", "Potency": "inconclusive: 29.1 µM [cytotoxic, partial curve, poor fit]"}
{"smiles": "Cc1ccc(S(=O)(=O)Nc2ccccc2C(=O)Nc2nc(-c3ccc(F)cc3)cs2)cc1", "Potency": "active: 11.6 µM"}
{"smiles": "N#C/C(=C(/O)CCl)c1nc(-c2ccccc2)cs1", "Potency": "inconclusive: 23.1 µM [cytotoxic, single point]"}
{"smiles": "CC[n+]1ccc(C)c2cc(SC(F)(F)F)ccc21", "Potency": "inconclusive: 25.9 µM [cytotoxic, single point]"}
{"smiles": "O=C(NCc1n[nH]c(=S)n1-c1cccc(Cl)c1)c1cccs1", "Potency": "inconclusive: 32.6 µM [rising, single point]"}
{"smiles": "O=C(CCl)Nc1cccc(Oc2cnccn2)c1", "Potency": "active: 20.6 µM"}
{"smiles": "O=C(Nc1cccc(S(=O)(=O)N2CCCCC2)c1)c1ccc2c(=O)n3c(nc2c1)CCCCC3", "Potency": "active: 11.6 µM"}
{"smiles": "COc1ccc(OCc2nc(C#N)c(N3CCN(c4ccc(OC)cc4)CC3)o2)cc1", "Potency": "inactive"}
{"smiles": "C[n+]1c2n(c3ccccc31)N=C(c1ccc(Cl)cc1)CS2", "Potency": "active: 5.8 µM"}
{"smiles": "Nc1ccccc1SC1CC(=O)N(c2ccc3c(c2)OCCO3)C1=O", "note": "(configuration not stated)", "Potency": "inactive"}
{"smiles": "O=C(c1ccccc1Cc1ccccc1)N1CCN(S(=O)(=O)c2ccc(F)cc2)CC1", "Potency": "inactive"}
{"smiles": "COc1ccc(C(=O)NC(=S)Nc2ccccc2N2CCOCC2)cc1Br", "Potency": "inactive"}
{"smiles": "Cc1nn(Cc2ccc(Cl)cc2Cl)c(C)c1NC(=O)CCl", "Potency": "active: 14.6 µM"}
{"smiles": "CC1CCN(CC2CCN(C(=O)NCc3ccccc3)CC2)CC1", "Potency": "inactive"}
{"smiles": "CCOc1ccc(N(CC(=O)NCC2CCCO2)C(=O)CCC(=O)Nc2nccs2)cc1", "note": "(configuration not stated)", "Potency": "inconclusive: 16.4 µM [rising, single point]"}
{"smiles": "Cc1ccccc1C(=O)Nc1cc(C)c(O)c(-c2nc3ccccc3o2)c1", "Potency": "inconclusive: 25.9 µM [cytotoxic, single point]"}
{"smiles": "Cc1c([N+](=O)[O-])c(C(=O)Sc2ccc(Br)cc2)nn1C", "Potency": "inactive"}
{"smiles": "CC1Cc2ccccc2N1CC(=O)NC(=O)NCc1ccccc1", "note": "(configuration not stated)", "Potency": "inactive"}
{"smiles": "COc1cccc(-c2csc(Nc3ccc(Oc4ccccc4)cc3)n2)c1", "Potency": "inactive"}
{"smiles": "CCCCN1CNC(=S)N(c2ccccc2OCC)C1", "Potency": "inactive"}
{"smiles": "CN(CCc1ccccc1)C(=O)c1cccc(NC(=O)Cc2cccc(NC(=O)C3CCCN(C(=O)c4ccccc4)C3)c2)c1", "note": "(configuration not stated)", "Potency": "inconclusive: 18.4 µM [cytotoxic, single point]"}
{"smiles": "COc1ccc(N2C3=[N+](CCCC3)CC2(C)O)cc1", "note": "(configuration not stated)", "Potency": "inconclusive: 25.9 µM [cytotoxic, single point]"}
{"smiles": "CC(C)(C#CCN1CCCCC1)OCCOC(c1ccccc1)c1ccccc1", "Potency": "inconclusive: 29.1 µM [cytotoxic, single point]"}
{"smiles": "CCOC(=O)CSc1nc2sc3c(c2c(=O)n1C1CCCCC1)CCN(C)C3", "Potency": "inactive"}
{"smiles": "C=CCn1c2ccccc2c(=O)c2cc(C#Cc3ccccn3)ccc21", "Potency": "inconclusive: 29.1 µM [cytotoxic, single point]"}
{"smiles": "COc1cccc(NC(=O)CSc2nc3ccccc3nc2N2CCCC2)c1", "Potency": "inconclusive: 20.6 µM [cytotoxic, single point]"}
{"smiles": "Cc1cc(C(=O)Nc2sc3c(c2C#N)CCC3)no1", "Potency": "inconclusive: 32.6 µM [cytotoxic, single point]"}
{"smiles": "CC(=NNC(=S)N1CCC1)c1ccccn1", "Potency": "inconclusive: 0.0092 µM [cytotoxic, full curve, poor fit]"}
{"smiles": "O=C(NCCc1ccccc1)c1ccc2c(c1)N(Cc1ccc(Cl)cc1)C(=O)CS2", "Potency": "active: 23.1 µM"}
{"smiles": "CCn1nc(C)cc1C(=O)N1CCc2c([nH]c3ccccc23)C1c1cc(F)ccc1F", "note": "(configuration not stated)", "Potency": "inconclusive: 16.4 µM [cytotoxic, single point]"}
{"smiles": "COc1ccc(-c2coc3c(C(=O)NCCN4CCOCC4)cccc23)c(C)c1", "Potency": "inconclusive: 29.1 µM [cytotoxic, single point]"}
{"smiles": "CC(=O)Nc1ccc(NC(=O)c2cc(-c3ccc(F)cc3C)n[nH]2)cc1", "Potency": "inactive"}
{"smiles": "Cc1cc(OCCCCOc2ccc(C#N)cc2)ccc1[N+](=O)[O-]", "activity change, negative = cytotoxic": "inconclusive: -18.6%"}
{"smiles": "CCOc1ccc(S(=O)(=O)Nc2cccc(C(=O)N3CCN(c4ccccn4)CC3)c2)cc1", "Potency": "inactive"}
{"smiles": "COc1cccc(C(O)c2nc(-c3ccccc3OC)cs2)c1", "note": "(configuration not stated)", "Potency": "inactive"}
{"smiles": "CC(=O)c1cccc(NC(=O)C(C)OC(=O)CN2C(=O)NC(C)(C)C2=O)c1", "note": "(configuration not stated)", "Potency": "inactive"}
{"smiles": "CCC1(c2ccc(Cl)cc2)NC(=O)N(CC(=O)NCc2ccc(F)cc2)C1=O", "note": "(configuration not stated)", "Potency": "inactive"}
{"smiles": "Cc1cccc(N2C(=O)CC(c3ccc(F)cc3)C3=C2COC3=O)c1", "note": "(configuration not stated)", "Potency": "inactive"}
{"smiles": "CCOc1ccc(CCn2c3c(c(=O)[nH]c2=O)C(NC(=O)c2cccc(F)c2)(C(F)(F)F)C(=O)N3)cc1OCC", "note": "(configuration not stated)", "Potency": "inconclusive: 23.1 µM [rising, single point]"}
{"smiles": "Cc1nc(NC(=S)NC(=O)COc2ccc(Cl)cc2)ccc1Br", "Potency": "inconclusive: 5.8 µM [cytotoxic, full curve, poor fit]"}
{"smiles": "Cc1nc2cc(NS(=O)(=O)c3cccc4cccnc34)ccc2s1", "Potency": "inconclusive: 23.1 µM [cytotoxic, partial curve, poor fit]"}
{"smiles": "COc1ccccc1N(CC(=O)NC1CCCC1)C(=O)c1oc(C(C)(C)C)cc1C", "Potency": "inconclusive: 29.1 µM [cytotoxic, single point]"}
{"smiles": "O=S(=O)(NC1=NCCC1)c1ccc(F)cc1F", "Potency": "inactive"}
{"smiles": "CC1(NC(=O)CCc2ccccc2)CCN(CCCc2ccccc2)C1=O", "note": "(configuration not stated)", "Potency": "inconclusive: 25.9 µM [rising, single point]"}
{"smiles": "O=C(CN1CCN(S(=O)(=O)c2ccc(Cl)cc2)CC1)Nc1ccc2c(c1)CCC2", "Potency": "inconclusive: 29.1 µM [cytotoxic, single point]"}
{"smiles": "CCOC(=O)/C=c1\\s/c(=C\\c2ccc(C#N)cc2)c(=O)n1CC(=O)Nc1cccc(C)c1C", "Potency": "inconclusive: 6.51 µM [cytotoxic, partial curve]"}
{"smiles": "CCCCN(CCCC)CCCNC(=O)C12CN(Cc3ccccc3)CC1C(c1cccc([N+](=O)[O-])c1)=NO2", "note": "(configuration not stated)", "Potency": "inactive"}
{"smiles": "COc1ccccc1/C=C1\\S/C(=N/NC(=O)c2cccc(Br)c2)NC1=O", "Potency": "active: 8.2 µM"}
{"smiles": "O=c1[nH]nc(-c2ccc([N+](=O)[O-])o2)c(=O)[nH]1", "Potency": "inconclusive: 11.6 µM [rising, partial curve]"}
{"smiles": "NS(=O)(=O)c1cccc(NC(=O)/C=C/c2cccs2)c1", "Potency": "inconclusive: 18.4 µM [rising, single point]"}
{"smiles": "C=CC[C@@H](CC(=O)N(CCO)Cc1ccccc1)C(=O)N[C@H](COC(=O)[C@@H](CC=C)Cc1ccc(F)cc1)C(C)(C)C", "Potency": "inconclusive: 14.6 µM [cytotoxic, single point]"}
{"smiles": "Cc1cccc(/C=N/NC(=O)Cn2nnnc2N)n1", "Potency": "inactive"}
{"smiles": "O=C(Nc1ncccc1O)c1ccc(Oc2ccccc2)cc1", "Potency": "inconclusive: 29.1 µM [cytotoxic, single point]"}
{"smiles": "O=C(CCn1nc(-c2ccc(Cl)cc2)ccc1=O)N1CCN(c2ccc(F)cc2)CC1", "Potency": "inactive"}
{"smiles": "COc1ccc(NC(=O)c2ccc(OCc3c(C)noc3C)c(OC)c2)cn1", "Potency": "inactive"}
{"smiles": "Cc1cccc(C)c1-n1ncc(C(=O)NCCCN2CCC(C)CC2)c1C1CCN(C(=O)OC(C)(C)C)CC1", "Potency": "inconclusive: 9.2 µM [cytotoxic, partial curve, poor fit]"}
{"smiles": "CCOC(=O)c1cnc2c(ccc3ccccc32)c1Nc1ccc(C(C)=O)cc1", "Potency": "inconclusive: 16.4 µM [cytotoxic, partial curve, poor fit]"}
{"smiles": "COc1ccc(S(=O)(=O)Nc2ccc3c(c2)C(=O)N([C@H](C)CO)C[C@@H](C)[C@@H](CN(C)S(=O)(=O)c2ccc(Cl)cc2)O3)cc1", "Potency": "inconclusive: 16.4 µM [cytotoxic, partial curve]"}
